Laboratory results published in the supplement of paper PMC7661543.
Differences between knockout arms are mostly noise.

Test system: SKBR3
Test: relative cell number vs DMSO control (72 h) (% of DMSO); higher = less growth inhibition (more cells)
Protocol: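 QMAP-Seq: a pool of 5 breast cancer cell lines (ZR-75-1, SKBR3, HCC-38, MDA-MB-231, BT-20), each carrying 12 doxycycline-inducible Cas9 sgRNA perturbations (11 knockouts plus non-targeting sgNT), was treated with compounds for 72 h at four 10-fold doses (10 nM-10 uM or 1 nM-1 uM range). Barcodes were amplified and sequenced, and cell number was interpolated from 293T spike-in standard curves. The result is expressed as % of the median of DMSO wells. Two biological replicates.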

C[C@@H](Nc1cc(F)cc(F)c1)c1cc(C(=O)N(C)C)cc2c(=O)cc(N3CCOCC3)oc12 [AZD8186]
Details	relative cell number
sgRNA knockout: sgATF3, 10 nM	110
sgRNA knockout: sgATF3, 100 nM	115
sgRNA knockout: sgATF3, 1000 nM	96.9
sgRNA knockout: sgATF3, 10000 nM	44.2
sgRNA knockout: sgATF4, 10 nM	96.9
sgRNA knockout: sgATF4, 100 nM	103
sgRNA knockout: sgATF4, 1000 nM	78.9
sgRNA knockout: sgATF4, 10000 nM	51.5
sgRNA knockout: sgATF6, 10 nM	90.6
sgRNA knockout: sgATF6, 100 nM	92.3
sgRNA knockout: sgATF6, 1000 nM	80.1
sgRNA knockout: sgATF6, 10000 nM	54.2
sgRNA knockout: sgATG7, 10 nM	105
sgRNA knockout: sgATG7, 100 nM	125
sgRNA knockout: sgATG7, 1000 nM	82.7
sgRNA knockout: sgATG7, 10000 nM	63.7
sgRNA knockout: sgERN1, 10 nM	127
sgRNA knockout: sgERN1, 100 nM	143
sgRNA knockout: sgERN1, 1000 nM	83.7
sgRNA knockout: sgERN1, 10000 nM	56
sgRNA knockout: sgHSF1, 10 nM	102
sgRNA knockout: sgHSF1, 100 nM	88.1
sgRNA knockout: sgHSF1, 1000 nM	77.2
sgRNA knockout: sgHSF1, 10000 nM	43.6
sgRNA knockout: sgHSF2, 10 nM	97.3
sgRNA knockout: sgHSF2, 100 nM	101
sgRNA knockout: sgHSF2, 1000 nM	83.7
sgRNA knockout: sgHSF2, 10000 nM	48.4
sgRNA knockout: sgKEAP1, 10 nM	107.7
sgRNA knockout: sgKEAP1, 100 nM	114
sgRNA knockout: sgKEAP1, 1000 nM	75.2
sgRNA knockout: sgKEAP1, 10000 nM	45.7
sgRNA knockout: sgNFE2L2, 10 nM	80.1
sgRNA knockout: sgNFE2L2, 100 nM	108
sgRNA knockout: sgNFE2L2, 1000 nM	81.1
sgRNA knockout: sgNFE2L2, 10000 nM	51.2
sgRNA knockout: sgSLC35F2, 10 nM	101
sgRNA knockout: sgSLC35F2, 100 nM	89.3
sgRNA knockout: sgSLC35F2, 1000 nM	77.9
sgRNA knockout: sgSLC35F2, 10000 nM	42.3
sgRNA knockout: sgXBP1, 10 nM	106
sgRNA knockout: sgXBP1, 100 nM	116
sgRNA knockout: sgXBP1, 1000 nM	93.9
sgRNA knockout: sgXBP1, 10000 nM	62.5

CC(C)C[C@H](NC(=O)[C@H](Cc1ccccc1)NC(=O)c1cnccn1)B(O)O [Bortezomib]
Details	relative cell number
sgRNA knockout: sgATF3, 1 nM	78.9
sgRNA knockout: sgATF3, 10 nM	53.1
sgRNA knockout: sgATF3, 100 nM	12.7
sgRNA knockout: sgATF3, 1000 nM	9.87
sgRNA knockout: sgATF4, 1 nM	90.8
sgRNA knockout: sgATF4, 10 nM	42.4
sgRNA knockout: sgATF4, 100 nM	9.3
sgRNA knockout: sgATF4, 1000 nM	8.36
sgRNA knockout: sgATF6, 1 nM	92.5
sgRNA knockout: sgATF6, 10 nM	40.3
sgRNA knockout: sgATF6, 100 nM	12.1
sgRNA knockout: sgATF6, 1000 nM	9.18
sgRNA knockout: sgATG7, 1 nM	98.5
sgRNA knockout: sgATG7, 10 nM	47.9
sgRNA knockout: sgATG7, 100 nM	6.75
sgRNA knockout: sgATG7, 1000 nM	13.3
sgRNA knockout: sgERN1, 1 nM	100
sgRNA knockout: sgERN1, 10 nM	38.5
sgRNA knockout: sgERN1, 100 nM	10.3
sgRNA knockout: sgERN1, 1000 nM	9.11
sgRNA knockout: sgHSF1, 1 nM	91.8
sgRNA knockout: sgHSF1, 10 nM	46.1
sgRNA knockout: sgHSF1, 100 nM	10
sgRNA knockout: sgHSF1, 1000 nM	9.32
sgRNA knockout: sgHSF2, 1 nM	92.7
sgRNA knockout: sgHSF2, 10 nM	53.9
sgRNA knockout: sgHSF2, 100 nM	10.7
sgRNA knockout: sgHSF2, 1000 nM	8.76
sgRNA knockout: sgKEAP1, 1 nM	101
sgRNA knockout: sgKEAP1, 10 nM	50.4
sgRNA knockout: sgKEAP1, 100 nM	10.1
sgRNA knockout: sgKEAP1, 1000 nM	10.2
sgRNA knockout: sgNFE2L2, 1 nM	75.7
sgRNA knockout: sgNFE2L2, 10 nM	50.4
sgRNA knockout: sgNFE2L2, 100 nM	13.7
sgRNA knockout: sgNFE2L2, 1000 nM	11.3
sgRNA knockout: sgSLC35F2, 1 nM	90.5
sgRNA knockout: sgSLC35F2, 10 nM	44
sgRNA knockout: sgSLC35F2, 100 nM	8.71
sgRNA knockout: sgSLC35F2, 1000 nM	7.84
sgRNA knockout: sgXBP1, 1 nM	74.442
sgRNA knockout: sgXBP1, 10 nM	44.5
sgRNA knockout: sgXBP1, 100 nM	9.43
sgRNA knockout: sgXBP1, 1000 nM	11.1

CC[C@H](Nc1ncnc2[nH]cnc12)c1nc2cccc(F)c2c(=O)n1-c1ccccc1 [CAL101]
Details	relative cell number
sgRNA knockout: sgATF3, 10 nM	91.4
sgRNA knockout: sgATF3, 100 nM	78.4
sgRNA knockout: sgATF3, 1000 nM	112
sgRNA knockout: sgATF3, 10000 nM	75.4
sgRNA knockout: sgATF4, 10 nM	75.3
sgRNA knockout: sgATF4, 100 nM	106
sgRNA knockout: sgATF4, 1000 nM	101
sgRNA knockout: sgATF4, 10000 nM	89
sgRNA knockout: sgATF6, 10 nM	66.9
sgRNA knockout: sgATF6, 100 nM	80.7
sgRNA knockout: sgATF6, 1000 nM	91.2
sgRNA knockout: sgATF6, 10000 nM	98.7
sgRNA knockout: sgATG7, 10 nM	99.2
sgRNA knockout: sgATG7, 100 nM	73.3
sgRNA knockout: sgATG7, 1000 nM	96.5
sgRNA knockout: sgATG7, 10000 nM	102
sgRNA knockout: sgERN1, 10 nM	73.9
sgRNA knockout: sgERN1, 100 nM	78.8
sgRNA knockout: sgERN1, 1000 nM	113
sgRNA knockout: sgERN1, 10000 nM	99.1
sgRNA knockout: sgHSF1, 10 nM	71.7
sgRNA knockout: sgHSF1, 100 nM	89.2
sgRNA knockout: sgHSF1, 1000 nM	86.2
sgRNA knockout: sgHSF1, 10000 nM	102
sgRNA knockout: sgHSF2, 10 nM	87.65
sgRNA knockout: sgHSF2, 100 nM	89.5
sgRNA knockout: sgHSF2, 1000 nM	103
sgRNA knockout: sgHSF2, 10000 nM	90.5
sgRNA knockout: sgKEAP1, 10 nM	76.9
sgRNA knockout: sgKEAP1, 100 nM	83.1
sgRNA knockout: sgKEAP1, 1000 nM	94.5
sgRNA knockout: sgKEAP1, 10000 nM	81.8
sgRNA knockout: sgNFE2L2, 10 nM	74.6
sgRNA knockout: sgNFE2L2, 100 nM	67.9
sgRNA knockout: sgNFE2L2, 1000 nM	82.8
sgRNA knockout: sgNFE2L2, 10000 nM	85.3
sgRNA knockout: sgSLC35F2, 10 nM	88.2
sgRNA knockout: sgSLC35F2, 100 nM	106
sgRNA knockout: sgSLC35F2, 1000 nM	97.5
sgRNA knockout: sgSLC35F2, 10000 nM	74.72
sgRNA knockout: sgXBP1, 10 nM	78.324
sgRNA knockout: sgXBP1, 100 nM	105
sgRNA knockout: sgXBP1, 1000 nM	106
sgRNA knockout: sgXBP1, 10000 nM	98.9
